Results reported in article PMC10204066.
These are yes or no findings as the source states them, for the method shown. Tags and fused reporters may be left off the sequences shown.

Key:
[1] = target: SolG (nonribosomal peptide synthetase, module 5 of the solanimycin cluster) (Dickeya solani MK10); assay: native gel or EMSA; blue native PAGE of SolG expressed in E. coli
[2] = target: SolG (nonribosomal peptide synthetase, module 5 of the solanimycin cluster) (Dickeya solani MK10); assay: AUC; analytical ultracentrifugation of SolG expressed in E. coli; both purified
[3] = target: SolG (nonribosomal peptide synthetase, module 5 of the solanimycin cluster) (Dickeya solani MK10); assay: native MS; non-denaturing mass spectrometry of SolG expressed in E. coli; both purified

Measured: binding

B1: SolG (nonribosomal peptide synthetase, module 5 of the solanimycin cluster) (enzyme, UniProt A0ABU4EJF4 1-1163)
chain: MSDFEQLLLTLEEAKISISLDNDDLVITSAKGALTSEIKSALREHKMTMVHALRNGKRLSNAFEVVVPANKITPETTAITPELLPLIDFTQKDIDHVVEQVSGGVSNIQDIYSLAPLQEGILFHHMLASKGDPYLQTGQMTFDSREKVDNYLAAVQQVIDRHDIMRTGFYWEGVSTPCQVVQRQATLHVLEVDLDPANGPIAKQLSERFDPSHYSIDLAKPPLLHAFVAYDKRSDRWEMFRVLHHLIDDITSVLILSAEIHTFLAGRGHTLPAAQPFRRLIAQVRLGKSPEEHERYFRATLADIDEPTAPYGLVNMLDDFDIIEVTRKVPQRLNDALRAHARRLGVSLGSICHLAWGQVLACISGQDSVVFGTILFGRMHAGDGADQIMGPFINTLPLRLDMHGASVQESVRTTHKRLAELLSHEHASLALALRCSGISGSTPLFNTLFNYRHNRESESKSLDFVVPEADQWDGFEERTTYPITLSVDDYGNALGLNIQVVDSLDPELLFAYTQQALENIAGALDSAPNTPMQQIAILPAAERHLLLNEWNNTGKVYPDVAYTHQMFEAQVKLTPSATALRFGDRELSYAELNALSNQLAHHLRQQGVKPDDRVAICLDRSIEMVVGLMGIIKAGGAYVPLDPDYPQERLSYILQDSAPTLLLLDQRGREVTAELDTTGIAAFELDVASLARSSLSTESLSPAELGLTSRHLAYVIYTSGSTGKPKGVENEHRGLINRLQWMQDAYQLDSSDAVLQKTTFSFDVSVWEFFWPLSVGATLVVAPPGAHKDTQALAQVIQSNNITTIHFVPSMLNLFLANDSVAACRSLRRIVCSGEALSSASVVRCHKLLPDTAVHNLYGPTEAAIDVTSWTCPKDLPESATVPIGRPIANLRIYLLDQHLRPVPRGVVGELYIGGVGVARGYLNRPDLTAERFVNDPFVSDADARMYRTGDVARYLADGDIDYLGRNDNQVKIRGFRIELGEIDAELLKQPTVREAVVVARGDVQGDLRLVAYVVLSAEAETEGLGLSEHIAQWRSSLAAQLPEYMVPAAFVKLDQLPLTANGKLDRKALPLPDDSSFSRSAYEAPQGDVEIAMAELWQELLGVERIGRHDNFFELGGHSLLAVQLMEHLRQRDLSTEIRALFDSPTLAELSARTIELDEMRL
no binding: [1] | [2] | [3]
